# Experimental data as given in US20210388086A1.
# Results are given in words; binding and its absence hold for the method and conditions named. A result given as binding can be weak or reduced; the word gives no strength.
# What was measured:
# [1] = molecular target: ROR2 extracellular protein; test: ELISA, plate coated with ROR2 extracellular protein
# [2] = molecular target: human ROR2 extracellular end, His-tagged (human); test: western blot, 5 µg/ml antibody
binding [1],binding [2],Binder
binds,binds,"A12 chimeric antibody (antibody, human IgG1, kappa, V domains shown) VH: QVQLQQSGPELVKPGASVRMSCKAAGYTITSYLMHWVKQRPGQDLEWIGYINPYNDGTKYNEKFKDKATLTSDKSSSTAYMELSSLTSEDSAVYYCARSDVYYGVRFAYWGQGTLVTVSA VL: DIVLTQSPAIMSASPGEKVTMTCSASSSVSYMHWYQQKSGTSPKRWIYDTSKLASGVPARFSGSGSGTSYSLTISSMEAEDAAIYYCQQWSSNPPTFGAGTKLELKR"
binds,binds,"B30 chimeric antibody (antibody, human IgG1, kappa, V domains shown) VH: QVQLQQSGPELVKPGASVRMSCKAAGYTFTSYLIHWVKQRPGQDLEWIGYINPYNDGTKYNEKFKDKATLTSDKSSSTAYMELSSLTSEDSAVYYCARSDVYYGVRFAYWGQGTLVTVSA VL: DIVLTQSPVIMSASPGEKVTMTCSASSSISYMYWYQQKPGSSPRLLIYDTSILASGVPVRFSGSGSGTSYSLTISRMEAEDAATYYCQQWSSYPFTFGSGTKLEIKR"
binds,binds,"B22 chimeric antibody (antibody, human IgG1, kappa, V domains shown) VH: QVQLQQPGAALVKPGASVKLSCKASGYTFTNYWIQWMKQRPGQGLEWIGEINPSNGRTDYNEKFKNRATLTVDNSSTTAYMQLSSLTSEDSAVYYCANYRPGYWGQGTSVTVSS VL: DIVMTQSQKFMSTSVGDRVSVTCKASQNVGTNVAWFQQKPGQSPKPLIYLASYRYSGVPDRFTGSGSGTDFTLTISNVQSEDLAEYFCQQYNSYPLTFGGGTNLEIKR"
